Measured data: PubChem BioAssay AID1259290 (Sanger Institute, 2017)

Screen: 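Identify kinases needed for colorectal cancer cell survival, with or without anchor drugs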 (primary screen)
Cells: human SNUC1 colorectal cancer cells
Reagents: siRNA pool against human genes
Challenge: anchor drugs BYL719 1 µM, cetuximab 5 µg/ml or trametinib 10 nM, or DMSO vehicle alone
Measurement: 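Cell viability relative to a non-targeting siRNA control, replicate-averaged, as robust z-score for knock-down alone, plus a synergy score for each anchor drug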
Direction: viability z-score, siRNA alone: higher = more viable cells; low values mean essential gene
Call rule: 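a knock-down without drug scoring a robust z under -3 counts as essential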
Calls: active = essential: knock-down alone cut viability (z below -3); inactive = no clear viability loss with knock-down alone
This is an unselected part of 794 deposited reagents. 9 of them (1.1%) were called active. 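Calls rest on knock-down alone, not drug synergy; synergy above 0.15 was grouped apart and does not affect calls.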 Unmarked entries are inactive. Further read-outs or replicates are left out here. Not stated in the record: the amount of reagent, the time to read-out.

HK2 (GeneID 3099) → viability z-score, siRNA alone = 0.936
SRP72 (GeneID 6731) → viability z-score, siRNA alone = 0.936
MAP3K3 (GeneID 4215) → viability z-score, siRNA alone = 0.0578
CUL1 (GeneID 8454) → viability z-score, siRNA alone = -0.525
CDKN2B (GeneID 1030) → viability z-score, siRNA alone = -0.13
DGKB (GeneID 1607) → viability z-score, siRNA alone = -0.307
DYRK1B (GeneID 9149) → viability z-score, siRNA alone = -0.554
BMX (GeneID 660) → viability z-score, siRNA alone = 0.592
FN3KRP (GeneID 79672) → viability z-score, siRNA alone = -2.22
TRPM6 (GeneID 140803) → viability z-score, siRNA alone = -0.554
CSNK2B (GeneID 1460) → viability z-score, siRNA alone = -0.736

Ordered by “viability z-score, siRNA alone” (high to low): some entries from above
BMX (GeneID 660) → viability z-score, siRNA alone = 0.592
DYRK1B (GeneID 9149) → viability z-score, siRNA alone = -0.554
TRPM6 (GeneID 140803) → viability z-score, siRNA alone = -0.554
FN3KRP (GeneID 79672) → viability z-score, siRNA alone = -2.22

The listing continues.
NUCKS1 (GeneID 64710) → viability z-score, siRNA alone = 0.936
CLK2 (GeneID 1196) → viability z-score, siRNA alone = 0.936
ETNK2 (GeneID 55224) → viability z-score, siRNA alone = -0.472
GUCY2D (GeneID 3000) → viability z-score, siRNA alone = -2.52
CDKN2C (GeneID 1031) → viability z-score, siRNA alone = -0.813
ROR1 (GeneID 4919) → viability z-score, siRNA alone = 0.936
PCBP1 (GeneID 5093) → viability z-score, siRNA alone = 0.19
EPHA5 (GeneID 2044) → viability z-score, siRNA alone = 0.936
MAPK1 (GeneID 5594) → viability z-score, siRNA alone = 0.705
MAP2K7 (GeneID 5609) → viability z-score, siRNA alone = 0.154
AK2 (GeneID 204) → viability z-score, siRNA alone = 0.936
CDADC1 (GeneID 81602) → viability z-score, siRNA alone = 0.674
GALK2 (GeneID 2585) → viability z-score, siRNA alone = 0.0304
BCKDK (GeneID 10295) → viability z-score, siRNA alone = 0.936
MAPK3 (GeneID 5595) → viability z-score, siRNA alone = 0.936
MAGI3 (GeneID 260425) → viability z-score, siRNA alone = -0.00317
ASPM (GeneID 259266) → viability z-score, siRNA alone = -0.384
